Data reported in the supplement of paper PMC12823440, “Inhibitors supercharge kinase turnover through native proteolytic circuits” (Nature, 2025).
Where a name gives a salt, the structure may show the parent alone. The list shows a part of the results. Hit calls seldom repeat between salt and free forms of one compound.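 Kinases were expressed as nanoluciferase fusions in K562 cells and luminescence was read every 4 h between 2 and 18 h as percent of control, DMSO set to 100% and a positive control to 0%. A time point counts as decreased when the signal drops significantly (2 sigma). The hit call is the authors' own, does not follow from the count of time points alone, and its rule is not shown.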

The chains behind the UniProt entries cited, without tags or fusion partners. Where a name states a change or a piece, a line headed by the entry shows the natural chain unless it says otherwise.
UniProt P51813: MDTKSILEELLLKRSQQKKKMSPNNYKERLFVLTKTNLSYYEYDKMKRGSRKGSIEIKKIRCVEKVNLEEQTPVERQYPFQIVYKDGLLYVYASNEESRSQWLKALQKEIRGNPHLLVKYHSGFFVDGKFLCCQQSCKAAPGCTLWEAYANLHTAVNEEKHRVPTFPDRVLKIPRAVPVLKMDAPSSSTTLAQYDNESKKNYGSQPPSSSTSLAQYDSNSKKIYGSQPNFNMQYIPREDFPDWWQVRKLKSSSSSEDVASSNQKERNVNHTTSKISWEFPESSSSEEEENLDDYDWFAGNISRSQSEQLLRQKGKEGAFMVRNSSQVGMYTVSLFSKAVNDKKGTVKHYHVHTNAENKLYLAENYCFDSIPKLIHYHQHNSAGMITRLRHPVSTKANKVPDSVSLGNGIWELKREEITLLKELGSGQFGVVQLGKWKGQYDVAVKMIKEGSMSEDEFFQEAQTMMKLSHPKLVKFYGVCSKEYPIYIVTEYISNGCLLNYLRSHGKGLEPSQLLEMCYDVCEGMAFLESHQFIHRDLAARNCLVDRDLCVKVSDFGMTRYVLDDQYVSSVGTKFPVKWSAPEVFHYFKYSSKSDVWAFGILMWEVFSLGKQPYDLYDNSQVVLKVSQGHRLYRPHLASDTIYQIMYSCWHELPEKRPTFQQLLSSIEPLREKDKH
UniProt P15056, whole entry, looked up: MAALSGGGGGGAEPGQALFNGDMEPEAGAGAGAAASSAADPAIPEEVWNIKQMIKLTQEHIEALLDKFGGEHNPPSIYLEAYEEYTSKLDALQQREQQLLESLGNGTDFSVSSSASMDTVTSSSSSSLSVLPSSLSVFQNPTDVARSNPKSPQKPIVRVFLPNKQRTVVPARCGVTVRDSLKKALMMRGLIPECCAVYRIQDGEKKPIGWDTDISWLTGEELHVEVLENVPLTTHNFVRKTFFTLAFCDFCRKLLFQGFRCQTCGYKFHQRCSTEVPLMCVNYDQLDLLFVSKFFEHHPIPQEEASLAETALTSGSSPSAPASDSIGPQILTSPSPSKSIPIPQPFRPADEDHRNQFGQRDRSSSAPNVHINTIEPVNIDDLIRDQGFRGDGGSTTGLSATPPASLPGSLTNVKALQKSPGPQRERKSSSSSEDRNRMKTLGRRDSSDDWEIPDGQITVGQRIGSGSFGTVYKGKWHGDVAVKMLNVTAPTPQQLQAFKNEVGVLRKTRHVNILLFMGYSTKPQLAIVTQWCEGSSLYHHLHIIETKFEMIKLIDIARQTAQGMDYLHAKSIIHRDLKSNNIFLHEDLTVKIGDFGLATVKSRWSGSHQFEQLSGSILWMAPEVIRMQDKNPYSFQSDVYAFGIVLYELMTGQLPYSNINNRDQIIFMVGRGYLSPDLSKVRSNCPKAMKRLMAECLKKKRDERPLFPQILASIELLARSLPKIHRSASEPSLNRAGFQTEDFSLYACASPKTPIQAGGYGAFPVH

target: BMX (UniProt P51813); experiment: number of time points (of 5) at which kinase-Nluc abundance scored as decreased, DMSO-normalised (count); higher = more persistent destabilization; conditions: K562; 2-18 h

SMILES | number of time points
CC1(N)CCN(c2cccnc2NC(=O)c2nc(-c3ncccc3C(F)(F)F)cnc2N)CC1 [Darovasertib] (10 µM) | 0
COc1cc(N2CCC(N3CCN(C)CC3)CC2)ccc1Nc1ncc(Cl)c(-c2c[nH]c3ccccc23)n1 (2.5 µM) | 0
CN1CCN(c2ccc(Nc3ncc4cc(C#N)c(=O)n(C5CCCC5)c4n3)cc2)CC1 (10 µM) | 0
CO[C@H]1CC[C@H](N2C(=O)CNc3ncc(-c4ccc(C(C)(C)O)nc4)nc32)CC1 (2.5 µM) | 0
Cc1c(C(=O)Nc2ccc(Oc3ccnc4[nH]cc(-c5ccccc5)c34)c(F)c2)c(=O)n(-c2ccc(F)cc2)n1C (10 µM) | 0
COc1ccc(Nc2ncc(C(F)(F)F)c(NC3CC3)n2)cc1OC (10 µM) | 0
C[C@@H]1O[C@@H](Oc2cc(O)c3c(=O)c(O[C@@H]4O[C@@H](C)[C@H](O)[C@@H](O)[C@H]4O)c(-c4ccc(O)cc4)oc3c2)[C@H](O)[C@H](O)[C@H]1O [Kaempferitrin] (10 µM) | 0
COC(=O)Nc1ccc(-c2nc(N3CCOCC3)c3cnn(C4CCN(Cc5cccnc5)CC4)c3n2)cc1 (10 µM) | 0
CC(C)Oc1ccc(F)c(-c2cnc(N)c(C(=O)Nc3cnccc3N3CCC[C@@H](C(=O)O)C3)n2)c1 (2 µM) | 2
O=Nc1c(-c2c(O)[nH]c3cc(Br)ccc23)[nH]c2ccccc12 [GSK 3 Inhibitor IX] (2.5 µM) | 0
NCC1CCC(CNc2nc(NCc3ccccc3OC(F)(F)F)ncc2[N+](=O)[O-])CC1 (centres undefined) [PKC-theta inhibitor] (10 µM) | 0
N[C@@H]1CCCN(c2c(/C=C3\SC(=O)NC3=O)cccc2-c2ccccc2)C1 (10 µM) | 0
CCn1c(-c2nonc2N)nc2c(C#CC(C)(C)O)ncc(OC[C@H]3CCCNC3)c21 (10 µM) | 0
CNC(=O)c1cc2c(Oc3ccc(NC(=O)C4(C(=O)Nc5ccc(F)cc5)CC4)cc3)ccnc2cc1OC (2.5 µM) | 2
C=CC(=O)N1CC[C@@H](Oc2nc(Nc3ccc(N4CCC(N5CCN(C)CC5)CC4)cc3)c(C(N)=O)nc2CC)C1 [Naquotinib (mesylate)] (2.5 µM) | 0
C=CC(=O)Nc1cc(Nc2nccc(-c3cn(C)c4ccccc34)n2)c(OC)cc1OCCN(C)C [Rezivertinib] (2.5 µM) | 0
Oc1c(F)cc(-c2cnccc2-c2ccc(N3CCOCC3)cc2)cc1F (10 µM) | 0
Brc1ccc(CSc2nc3ccccc3o2)cc1 [BMP signaling agonist sb4] (10 µM) | 0
O=C1OC(/C=C/c2ccccc2)=NC/1=C\c1cccnc1 (10 µM) | 0
O=C(NCCN1CCOCC1)Nc1nc2ccc(Sc3nnc4ccc(-c5ccc(F)cc5)nn34)cc2s1 (10 µM) | 0
Cn1c(CNc2cccc(C(=O)NCc3ccccc3C(F)(F)F)c2)nnc1-c1ccncc1 (10 µM) | 0
COc1cc2cc(Oc3ccc4ccc(=O)oc4c3)c(=O)oc2cc1O [Daphnoretin] (10 µM) | 0
O=C(O)c1cc(N(Cc2ccccc2O)Cc2cc(O)ccc2O)ccc1O [Lavendustin A] (10 µM) | 0
Cc1c(Cl)cccc1S(=O)(=O)Nc1nc(NCCc2ccccc2)nc2c1CN(Cc1ccccc1)CC2 (2.5 µM) | 0
CO[C@H]1C[C@@H]2CC[C@@H](C)[C@@](O)(O2)C(=O)C(=O)N2CCCC[C@H]2C(=O)O[C@H]([C@H](C)C[C@@H]2CC[C@@H](OC(=O)C(C)(CO)CO)[C@H](OC)C2)CC(=O)[C@H](C)/C=C(\C)[C@@H](O)[C@@H](OC)C(=O)[C@H](C)C[C@H](C)/C=C/C=C/C=C/1C [Temsirolimus] (2.5 µM) | 0
O=C1Nc2ccc(CN3C(=O)CSC3=O)cc2/C1=C/c1cc(CN2CCOCC2)c[nH]1 (10 µM) | 0

target: BRAF (UniProt P15056); experiment: as above; conditions: K562; 2-18 h

SMILES | number of time points
N#Cc1cnc2c(Cl)cc(NCc3cn(CCN4CCCCCC4)nn3)cc2c1Nc1ccc(F)c(Cl)c1 [Cot inhibitor-1] (10 µM) | 3
Cc1cc(Nc2cc(N)ncn2)c(=O)n2c1C(=O)NC21CCCCC1 [Tomivosertib] (10 µM) | 0
CC(Cc1ccc(O)c(O)c1)C(C)Cc1ccc(O)c(O)c1 (centres undefined) [Nordihydroguaiaretic acid] (2.5 µM) | 0
CNC(=O)c1ccc2c(C(=Nc3cccc(CN(C)C)c3)c3ccccc3)c(O)[nH]c2c1 [MEK inhibitor] (10 µM) | 0
COC(=O)[C@H](CCSC)NC(=O)c1ccc(NC[C@@H](N)CS)cc1-c1ccccc1 [FTI-277 (hydrochloride)] (10 µM) | 0
C=CC(=O)Nc1ccc(C(=O)Nc2[nH]nc3c2CN(C(=O)N[C@H](CN(C)C)c2ccccc2)C3(C)C)cc1 (10 µM) | 2
CCN(CC)CCCC(C)Nc1nc(C)cc(Nc2ccc3nc(C)cc(N)c3c2)n1 (centres undefined) (10 µM) | 0
COc1cc(F)ccc1-c1ncnc(Nc2cccc(C[S@](C)(=N)=O)c2)n1 [Atuveciclib] (2.5 µM) | 0
O=C(c1cccc(Cl)c1F)N1CCN(Cc2cccc(Nc3nccs3)n2)CC1 (2.5 µM) | 0
N#Cc1ccc(-c2cnc3ccc(-c4ccc(C(=O)N5CCOCC5)cc4)cn23)cc1 (10 µM) | 0
Cc1ccc(C(=O)NC2CC2)cc1-n1ncc(C(=O)c2cccc(C#N)c2)c1N [Acumapimod] (10 µM) | 0
N#Cc1ccc(-c2cnc3[nH]cc(NC(=O)c4cccnc4)c3c2)cc1 (10 µM) | 0
CC1(N)CCN(c2cccnc2NC(=O)c2nc(-c3ncccc3C(F)(F)F)cnc2N)CC1 [Darovasertib] (10 µM) | 0
COc1cc(N2CCC(N3CCN(C)CC3)CC2)ccc1Nc1ncc(Cl)c(-c2c[nH]c3ccccc23)n1 (2.5 µM) | 0
CN1CCN(c2ccc(Nc3ncc4cc(C#N)c(=O)n(C5CCCC5)c4n3)cc2)CC1 (10 µM) | 0
CO[C@H]1CC[C@H](N2C(=O)CNc3ncc(-c4ccc(C(C)(C)O)nc4)nc32)CC1 (2.5 µM) | 0
Cc1c(C(=O)Nc2ccc(Oc3ccnc4[nH]cc(-c5ccccc5)c34)c(F)c2)c(=O)n(-c2ccc(F)cc2)n1C (10 µM) | 0
COc1ccc(Nc2ncc(C(F)(F)F)c(NC3CC3)n2)cc1OC (10 µM) | 0
C[C@@H]1O[C@@H](Oc2cc(O)c3c(=O)c(O[C@@H]4O[C@@H](C)[C@H](O)[C@@H](O)[C@H]4O)c(-c4ccc(O)cc4)oc3c2)[C@H](O)[C@H](O)[C@H]1O [Kaempferitrin] (10 µM) | 0

SMILES | number of time points
COC(=O)Nc1ccc(-c2nc(N3CCOCC3)c3cnn(C4CCN(Cc5cccnc5)CC4)c3n2)cc1 (10 µM) | 0
CC(C)Oc1ccc(F)c(-c2cnc(N)c(C(=O)Nc3cnccc3N3CCC[C@@H](C(=O)O)C3)n2)c1 (2 µM) | 0
O=Nc1c(-c2c(O)[nH]c3cc(Br)ccc23)[nH]c2ccccc12 [GSK 3 Inhibitor IX] (2.5 µM) | 0
NCC1CCC(CNc2nc(NCc3ccccc3OC(F)(F)F)ncc2[N+](=O)[O-])CC1 (centres undefined) [PKC-theta inhibitor] (10 µM) | 0
N[C@@H]1CCCN(c2c(/C=C3\SC(=O)NC3=O)cccc2-c2ccccc2)C1 (10 µM) | 0
CCn1c(-c2nonc2N)nc2c(C#CC(C)(C)O)ncc(OC[C@H]3CCCNC3)c21 (10 µM) | 0
CNC(=O)c1cc2c(Oc3ccc(NC(=O)C4(C(=O)Nc5ccc(F)cc5)CC4)cc3)ccnc2cc1OC (2.5 µM) | 0
C=CC(=O)N1CC[C@@H](Oc2nc(Nc3ccc(N4CCC(N5CCN(C)CC5)CC4)cc3)c(C(N)=O)nc2CC)C1 [Naquotinib (mesylate)] (2.5 µM) | 0
C=CC(=O)Nc1cc(Nc2nccc(-c3cn(C)c4ccccc34)n2)c(OC)cc1OCCN(C)C [Rezivertinib] (2.5 µM) | 0
Oc1c(F)cc(-c2cnccc2-c2ccc(N3CCOCC3)cc2)cc1F (10 µM) | 0
Brc1ccc(CSc2nc3ccccc3o2)cc1 [BMP signaling agonist sb4] (10 µM) | 0
O=C1OC(/C=C/c2ccccc2)=NC/1=C\c1cccnc1 (10 µM) | 0
O=C(NCCN1CCOCC1)Nc1nc2ccc(Sc3nnc4ccc(-c5ccc(F)cc5)nn34)cc2s1 (10 µM) | 0
Cn1c(CNc2cccc(C(=O)NCc3ccccc3C(F)(F)F)c2)nnc1-c1ccncc1 (10 µM) | 0
COc1cc2cc(Oc3ccc4ccc(=O)oc4c3)c(=O)oc2cc1O [Daphnoretin] (10 µM) | 0
O=C(O)c1cc(N(Cc2ccccc2O)Cc2cc(O)ccc2O)ccc1O [Lavendustin A] (10 µM) | 0
Cc1c(Cl)cccc1S(=O)(=O)Nc1nc(NCCc2ccccc2)nc2c1CN(Cc1ccccc1)CC2 (2.5 µM) | 2
CO[C@H]1C[C@@H]2CC[C@@H](C)[C@@](O)(O2)C(=O)C(=O)N2CCCC[C@H]2C(=O)O[C@H]([C@H](C)C[C@@H]2CC[C@@H](OC(=O)C(C)(CO)CO)[C@H](OC)C2)CC(=O)[C@H](C)/C=C(\C)[C@@H](O)[C@@H](OC)C(=O)[C@H](C)C[C@H](C)/C=C/C=C/C=C/1C [Temsirolimus] (2.5 µM) | 0
O=C1Nc2ccc(CN3C(=O)CSC3=O)cc2/C1=C/c1cc(CN2CCOCC2)c[nH]1 (10 µM) | 0
